The assay addresses peroxisome proliferator-activated receptor γ (UniProt P37238). Nature of the assay: co-IP; HEK 293T cells transfected with HA-MT3, Myc-PPARγ or empty Myc vector; lysis buffer with 1% NP-40, 25 mM HEPES pH 7.5, 150 mM NaCl, 0.25% sodium deoxycholate; lysates with antibodies at 4 °C overnight, protein A-Sepharose beads 2 h at 4 °C, three washes with lysis buffer, immunoblotting.

The chains behind the UniProt entries cited, without tags or fusion partners.
UniProt P37238: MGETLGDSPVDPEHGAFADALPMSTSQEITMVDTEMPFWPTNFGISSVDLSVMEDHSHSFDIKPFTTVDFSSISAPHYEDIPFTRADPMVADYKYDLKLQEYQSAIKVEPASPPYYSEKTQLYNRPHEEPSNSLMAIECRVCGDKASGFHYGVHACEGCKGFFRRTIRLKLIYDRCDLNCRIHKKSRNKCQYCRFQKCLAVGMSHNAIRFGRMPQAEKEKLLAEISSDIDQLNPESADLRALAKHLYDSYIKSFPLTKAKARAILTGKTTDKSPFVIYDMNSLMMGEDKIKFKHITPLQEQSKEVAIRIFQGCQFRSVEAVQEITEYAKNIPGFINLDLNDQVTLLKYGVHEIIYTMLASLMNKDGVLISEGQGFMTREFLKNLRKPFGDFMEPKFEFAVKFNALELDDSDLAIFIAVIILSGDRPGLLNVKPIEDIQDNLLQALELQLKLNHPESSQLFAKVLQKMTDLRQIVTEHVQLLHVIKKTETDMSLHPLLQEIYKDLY
UniProt P28184: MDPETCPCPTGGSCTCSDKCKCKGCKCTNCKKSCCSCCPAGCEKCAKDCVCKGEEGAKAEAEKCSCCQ

These are yes or no findings as the source states them, for the method shown. In cells and extracts the contact can be indirect.

As to “Metallothionein 3 (from UniProt P28184 1-68)”, the binding result is recorded as “no binding”.

The values are drawn from article PMC10045306.
